# Laboratory results: the supplement of paper PMC10727501
# The other results are listed elsewhere or left out. This data set is noisy: repeats of one test often differ as much as different tests do.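 Researchers measured free-swimming zebrafish larvae's O-bend response probability to dark flashes (naive: first five; training: remaining flashes of four 60-flash blocks; test: later 60-flash block) and OMR turning toward alternating leftward/rightward LED motion. Six treated larvae were compared to sixty 0.1% DMSO controls, with |SSMD|≥2 marking a hit.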
# Columns and labels:
# Details in all cases: 10 µM; pre-incubation: 30-90 min
# [1] = tested on: Danio rerio larvae (5 dpf, TLF); test: OMR-Perf (SSMD vs DMSO vehicle); higher = higher than vehicle (e.g. higher dark-flash O-bend response probability, or better optomotor performance)
# [2] = tested on: Danio rerio larvae (5 dpf, TLF); test: Prob-Test (SSMD vs DMSO vehicle); higher = higher than vehicle (e.g. higher dark-flash O-bend response probability, or better optomotor performance)
# [3] = tested on: Danio rerio larvae (5 dpf, TLF); test: Prob-Naive (SSMD vs DMSO vehicle); higher = higher than vehicle (e.g. higher dark-flash O-bend response probability, or better optomotor performance)
# [4] = tested on: Danio rerio larvae (5 dpf, TLF); test: Prob-Train (SSMD vs DMSO vehicle); higher = higher than vehicle (e.g. higher dark-flash O-bend response probability, or better optomotor performance)
structure (smiles),measurement,setting,value
C=C(C)[C@@H]1[C@H]2OC(=O)[C@@H]1[C@]1(O)C[C@H]3O[C@]34C(=O)O[C@H]2[C@]14C [Picrotoxinin],OMR-Perf,[1],-0.453
same,Prob-Test,[2],1.06
same,Prob-Naive,[3],0.259
same,Prob-Train,[4],2.06
